These are yes or no findings as the source states them, for the method shown. In cells and extracts the contact can be indirect. Here binding means that the protein was enriched with, or labelled near, the bait; the list need not be complete. For some assays here: No binding means not detected with the bait.
Key:
[1] = biological target: TAP-RIPK3 (K50A), enzymatically inactive (KD) (human) (UniProt Q9Y572); test: affinity purification with mass spectrometry; TAP-mock, TAP-RIPK3 WT or TAP-RIPK3-KD transiently transfected into 293 T cells, 18 h; lysate purified in two steps (streptavidin and calmodulin); SDS-PAGE bands analysed by LC-MS/MS; proteins found with TAP-mock and TAP-RIPK3-KD subtracted
[2] = biological target: TAP-RIPK3 wild-type (WT) fusion protein (human) (UniProt Q9Y572); test: as above

The chains behind the UniProt entries cited, without tags or fusion partners. Where a name states a change or a piece, a line headed by the entry shows the natural chain unless it says otherwise.
UniProt Q9Y572: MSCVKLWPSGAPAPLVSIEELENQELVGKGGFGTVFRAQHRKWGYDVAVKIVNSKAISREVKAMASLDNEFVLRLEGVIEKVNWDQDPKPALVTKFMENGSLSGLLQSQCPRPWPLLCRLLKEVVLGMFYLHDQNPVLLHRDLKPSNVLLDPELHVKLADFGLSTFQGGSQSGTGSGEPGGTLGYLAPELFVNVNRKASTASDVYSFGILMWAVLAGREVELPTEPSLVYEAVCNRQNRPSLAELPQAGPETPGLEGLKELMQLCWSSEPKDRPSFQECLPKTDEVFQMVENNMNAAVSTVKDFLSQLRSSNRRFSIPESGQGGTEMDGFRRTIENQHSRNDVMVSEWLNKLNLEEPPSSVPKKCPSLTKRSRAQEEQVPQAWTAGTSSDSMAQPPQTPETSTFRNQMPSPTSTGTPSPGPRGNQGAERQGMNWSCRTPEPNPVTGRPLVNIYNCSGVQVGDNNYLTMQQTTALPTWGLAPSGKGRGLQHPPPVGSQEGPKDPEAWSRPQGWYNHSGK

binding [1]: no binding
binding [2]: binds
Substance: Tripartite motif containing 28 (TRIM28), endogenous in 293 T cells (from UniProt Q13263-1 1-835)

From article PMC8379748
